Literature values in article PMC7343282, “Tissue Distribution of Several Series of Cationic Surfactants in Rainbow Trout (Oncorhynchus mykiss) Following Exposure via Water” (Environmental Science & Technology, 2020).

Test system: tadpoles
Details: 24 h exposure via water; cited from earlier work

SMILES: CCCCCCCCCCCCCCCC[n+]1ccccc1.[Br-] [hexadecylpyridinium bromide]
- concentrations in liver, kidney, and fat body, times lower than the concentration in gills: 30–100
